Measured values published in paper PMC10580587.

The chains behind the UniProt entries cited, without tags or fusion partners. Where a name states a change or a piece, a line headed by the entry shows the natural chain unless it says otherwise.
UniProt Q13485: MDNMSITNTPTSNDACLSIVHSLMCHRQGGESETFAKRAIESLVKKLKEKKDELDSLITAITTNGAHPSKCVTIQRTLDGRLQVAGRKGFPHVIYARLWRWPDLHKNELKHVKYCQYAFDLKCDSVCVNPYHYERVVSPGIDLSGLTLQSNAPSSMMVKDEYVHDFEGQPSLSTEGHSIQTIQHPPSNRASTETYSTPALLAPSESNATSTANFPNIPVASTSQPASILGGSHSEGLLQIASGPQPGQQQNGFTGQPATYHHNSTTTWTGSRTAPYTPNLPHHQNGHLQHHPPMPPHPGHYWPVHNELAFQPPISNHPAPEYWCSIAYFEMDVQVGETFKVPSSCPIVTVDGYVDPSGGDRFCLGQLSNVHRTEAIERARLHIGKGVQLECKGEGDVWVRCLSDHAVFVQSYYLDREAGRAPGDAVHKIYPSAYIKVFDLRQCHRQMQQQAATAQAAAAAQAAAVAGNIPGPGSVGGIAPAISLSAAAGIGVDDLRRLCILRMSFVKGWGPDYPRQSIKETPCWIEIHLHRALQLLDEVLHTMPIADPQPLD

Target: flag-HA-tagged SMAD4 (human) (UniProt Q13485)
Assay: co-IP; Hela cells cotransfected with flag-HA-tagged SMAD3 or SMAD4 and HA-tagged CSRP2BP; lysate incubated with anti-flag antibody (or control normal IgG) at 4 °C for 2 h, precipitated with protein A/G; Western blotting with anti-HA antibody

binding: binds
B1: HA-tagged CSRP2BP (protein, UniProt Q9H8E8 1-782)
chain: MDSSIHLSSLISRHDDEATRTSTSEGLEEGEVEGETLLIVESEDQASVDLSHDQSGDSLNSDEGDVSWMEEQLSYFCDKCQKWIPASQLREQLSYLKGDNFFRFTCSDCSADGKEQYERLKLTWQQVVMLAMYNLSLEGSGRQGYFRWKEDICAFIEKHWTFLLGNRKKTSTWWSTVAGCLSVGSPMYFRSGAQEFGEPGWWKLVHNKPPTMKPEGEKLSASTLKIKAASKPTLDPIITVEGLRKRASRNPVESAMELKEKRSRTQEAKDIRRAQKEAAGFLDRSTSSTPVKFISRGRRPDVILEKGEVIDFSSLSSSDRTPLTSPSPSPSLDFSAPGTPASHSATPSLLSEADLIPDVMPPQALFHDDDEMEGDGVIDPGMEYVPPPAGSVASGPVVGVRKKVRGPEQIKQEVESEEEKPDRMDIDSEDTDSNTSLQTRAREKRKPQLEKDTKPKEPRYTPVSIYEEKLLLKRLEACPGAVAMTPEARRLKRKLIVRQAKRDRGLPLFDLDQVVNAALLLVDGIYGAKEGGISRLPAGQATYRTTCQDFRILDRYQTSLPSRKGFRHQTTKFLYRLVGSEDMAVDQSIVSPYTSRILKPYIRRDYETKPPKLQLLSQIRSHLHRSDPHWTPEPDAPLDYCYVRPNHIPTINSMCQEFFWPGIDLSECLQYPDFSVVVLYKKVIIAFGFMVPDVKYNEAYISFLFVHPEWRRAGIATFMIYHLIQTCMGKDVTLHVSASNPAMLLYQKFGFKTEEYVLDFYDKYYPLESTECKHAFFLRLRR

These are yes or no findings as the source states them, for the method shown. Binding seen in cells or lysates may run through a third protein. Binding can be weak; no strength is given. Sequences can lack the tags named with a protein.
